These are literature values, as cited in US20250332159A1, “REACTIVE OXYGEN SPECIES MODULATION THROUGH BINDING OF LIGANDS AT THE NQ-BINDING SITE OF THE RESPIRATORY COMPLEX III” (University of Health Sciences & Pharmacy in St. Louis, priority 2024, published 2025).

In general, IC50 refers to the concentration that gives 50% inhibition.

This data set concerns MCF7 cells. To be noted: read-out: IC50 of positive controls; MCF7, literature references given (Seeger et al., 2004; Fang et al., 2014); cited from earlier work.

In the case of `CC/C(=C(\c1ccccc1)c1ccc(OCCN(C)C)cc1)c1ccccc1` [tamoxifen], the half-inhibitory concentration (IC50) was roughly 22.1 µM.
